Measured values as given in patent US20170165336A1.

How the values were obtained:
[1] = molecular target: v5-tagged orf57 (RRV orf57 cDNA in pEF1-v5-hisA) (rhesus monkey rhadinovirus (RRV)); assay: co-immunoprecipitation (FIG. 19a) and strep-tactin pull-down (FIG. 19b)
[2] = molecular target: V5-tagged rev (HIV-1 rev cDNA in pcDNA6-v5-hisA) (HIV-1); assay: as above
[3] = molecular target: V5-tagged rev (HIV-1 rev cDNA in pcDNA6-v5-hisA) (HIV-1); assay: co-immunoprecipitation, told again in the discussion
[4] = molecular target: v5-tagged orf57 (RRV orf57 cDNA in pEF1-v5-hisA) (rhesus monkey rhadinovirus (RRV)); assay: co-immunoprecipitation with mouse v5 antibody from transfected 293T cell lysates, anti-FLAG immunoblot (interaction RNA-mediated per the filing)
[5] = molecular target: V5-tagged rev (HIV-1 rev cDNA in pcDNA6-v5-hisA) (HIV-1); assay: as above

Measured: binding

B1: human schlafen 14 (FLAG-tagged, expressed from pcDNA4-FLAG) (protein)
chain: MESLKTDTEMPYPEVIVDVGRVIFGEENRKKMTNSCLKRSENSRIIRAICALLNSGGGVIKAEIDDKTYSYQCHGLGQDLETSFQKLLPSGSQKYLDYMQQGHNLLIFVKSWSPDVFSLPLRICSLRSNLYRRDVTSAINLSASSALELLREKGFRAQRGRPRVKKLHPQQVLNRCIQEEEDMRILASEFFKKDKLMYKEKLNFTESTHVEFKRFTTKKVIPRIKEMLPHYVSAFANTQGGYVLIGVDDKSKEVVGCKWEKVNPDLLKKEIENCIEKLPTFHFCCEKPKVNFTTKILNVYQKDVLDGYVCVIQVEPFCCVVFAEAPDSWIMKDNSVTRLTAEQWVVMMLDTQSAPPSLVTDYNSCLISSASSARKSPGYPIKVHKFKEALQRHLFPVTQEEVQFKPESLCKKLFSDHKELEGLMKTLIHPCSQGIVIFSRSWAGDVGFRKEQNVLCDALLIAVNSPVVLYTILIDPNWPGGLEYARNTAHQLKQKLQTVGGYTGKVCIIPRLIHLSSTQSRPGEIPLRYPRSYRLADEEEMEDLLQALVVVSLSSRSLLSDQMGCEFFNLLIMEQSQLLSESLQKTRELFIYCFPGVRKTALAIKIMEKIKDLFHCKPKEILYVCESDSLKDFVTQQTTCQAVTRKTFMQGEFLKIKHIVMDETENFCSKYGNWYMKAKNITHPKAKGTGSENLHHGILWLFLDPFQIHHADVNGLPPPSAQFPRKTITSGIHCALEIAKVMKEEMKRIKENPPSNMSPDTLALFSETAYEEATCAQALPGVCETKTNLTTEQIANYVARKCHSLFQCGYLPKDIAILCRRGEDRGRYRLALLKAMELIETHRPSEVVFSPATGVWGSHIVLDSIQQFSGLERTVVFGLSPECDQSEEFHKLCFASRAIKHLYLLYEKRAAY
binds: [1] | [2] | [3] | [4] | [5]

Results are given in words; binding and its absence hold for the method and conditions named. In cells and extracts the contact can be indirect. A result given as binding can be weak or reduced; the word gives no strength. Tags and fused reporters may be left off the sequences shown.
